At least one compound was matched to its structure with a doubt left.
The compounds below were run against T1, recombinant guanylate cyclase reporter cell line (Rattus norvegicus, UniProt P19686+P20595) (assay: B-2. Action on recombinant guanylate cyclase reporter cell line). Settings: MEC = minimal effective concentration; in some cases mean values from individual determinations.
T1 construct: expressed in transfected cells
T1 sequence (P20595 1-619): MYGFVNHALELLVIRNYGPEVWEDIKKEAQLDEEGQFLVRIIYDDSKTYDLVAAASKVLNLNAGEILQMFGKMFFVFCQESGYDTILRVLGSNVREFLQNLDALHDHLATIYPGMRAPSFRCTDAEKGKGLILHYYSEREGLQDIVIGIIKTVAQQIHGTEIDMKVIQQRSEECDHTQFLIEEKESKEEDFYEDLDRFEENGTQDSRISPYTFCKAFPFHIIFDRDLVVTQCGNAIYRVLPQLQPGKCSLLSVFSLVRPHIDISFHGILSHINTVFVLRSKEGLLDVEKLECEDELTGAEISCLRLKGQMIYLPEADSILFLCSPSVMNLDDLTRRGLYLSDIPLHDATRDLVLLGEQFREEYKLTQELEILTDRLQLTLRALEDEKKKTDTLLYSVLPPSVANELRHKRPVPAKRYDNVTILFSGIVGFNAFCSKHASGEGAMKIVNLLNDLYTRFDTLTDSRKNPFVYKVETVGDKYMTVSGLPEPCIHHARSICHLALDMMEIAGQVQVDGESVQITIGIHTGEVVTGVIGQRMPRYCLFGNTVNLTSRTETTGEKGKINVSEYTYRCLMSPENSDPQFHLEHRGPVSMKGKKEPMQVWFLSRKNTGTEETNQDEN
T1 sequence (P19686 1-690): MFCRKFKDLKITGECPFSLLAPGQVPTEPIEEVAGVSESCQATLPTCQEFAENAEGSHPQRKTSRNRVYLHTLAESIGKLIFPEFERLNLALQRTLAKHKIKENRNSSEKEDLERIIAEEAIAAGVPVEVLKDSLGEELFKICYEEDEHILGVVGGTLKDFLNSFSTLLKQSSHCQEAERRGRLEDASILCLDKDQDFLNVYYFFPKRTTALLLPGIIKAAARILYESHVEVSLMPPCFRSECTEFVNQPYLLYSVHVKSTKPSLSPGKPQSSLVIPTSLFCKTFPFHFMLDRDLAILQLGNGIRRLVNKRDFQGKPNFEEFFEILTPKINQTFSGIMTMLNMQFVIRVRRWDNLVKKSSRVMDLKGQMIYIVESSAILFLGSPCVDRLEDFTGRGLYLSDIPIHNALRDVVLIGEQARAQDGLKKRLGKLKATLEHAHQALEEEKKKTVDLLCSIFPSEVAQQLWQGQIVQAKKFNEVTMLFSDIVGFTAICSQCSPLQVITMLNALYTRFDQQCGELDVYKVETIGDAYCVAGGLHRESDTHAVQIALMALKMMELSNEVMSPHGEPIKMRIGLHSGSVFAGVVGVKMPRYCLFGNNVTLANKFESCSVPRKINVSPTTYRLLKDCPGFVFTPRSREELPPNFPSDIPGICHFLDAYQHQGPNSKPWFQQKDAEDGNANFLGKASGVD
Assay type: cell-based
Procedure: B-2. Action on Recombinant Guanylate Cyclase Reporter Cell Line
The cellular action of the compounds according to the invention is determined on a recombinant guanylate cyclase reporter cell line, as described in F. Wunder et al., Anal. Biochem. 339, 104-112 (2005).
Representative MEC values (MEC=minimal effective concentration) for the compounds according to the invention are shown in the following table (in some cases as mean values obtained from individual determinations): […]
In the case of `Cc1nc2c(OCc3c(F)cccc3F)cccn2c1C(=O)NC(CN)CCCC(F)(F)F` (racemic) [Example 4, rac-N-(1-amino-6,6,6-trifluorohexan-2-yl)-8-[(2,6-difluorobenzyl)oxy]-2-methylimidazo[1,2-a]pyridine-3-carboxamide], the MEC was 0.30 µM. In the case of `Cc1nc2c(OCc3c(F)cccc3F)cccn2c1C(=O)NCC(N)c1ccc(F)c(F)c1` (stereo not drawn) [Example 62, ent-N-[2-Amino-2-(3,4-difluorophenyl)ethyl]-8-[(2,6-difluorobenzyl)oxy]-2-methylimidazo[1,2-a]-pyridine-3-carboxamide], the MEC was 1.00 µM. `CCCC[C@H](CN1CCCCC1)NC(=O)c1c(C)nc2c(OCc3c(F)cccc3F)cccn12` [Example 65, ent-8-[(2,6-difluorobenzyl)oxy]-2-methyl-N-[(2R)-1-(piperidin-1-yl)hexan-2-yl]imidazo[1,2-a]-pyridine-3-carboxamide] gave an MEC of 1.00 µM.
